# Assay: Iodination of arachidonic acid by molecular iodine (thiosulfate titration, Example 1)
# Format: physicochemical
# Conditions: 1 mL iodate/iodide solution, 2 mL 1N HCl
# Experimental: A stock solution of 10 mg/ml arachidonic acid in ethanol was prepared. […] A control vial was prepared that had no arachidonic acid.
# An iodate/iodide solution was prepared separately by adding NaIO3 (Sigma-Aldrich, St. Louis, Mo.; part number S4007-500G) and NaI (Sigma-Aldrich, St. Louis, Mo.; part number […]) to final concentrations of 3.16 and 20.55 mM, respectively, in 0.64M sodium carbonate in water.
# Vials were then titrated with 0.01N sodium thiosulfate solution until the samples went from dark blue to colorless.
# Since the oxidation of iodide after acidification is diffusion controlled, the reaction of iodate with iodide is essentially instantaneous and five moles of iodide reacts with each mole of iodate to form 3 moles of molecular iodine.
# The ratio of iodide to iodate used in this experiment insured that there was unreacted […] present in the solution after acidification with HCl.
structure (smiles),measurement,setting,value
"CCCCC/C=C\C/C=C\C/C=C\C/C=C\CCCC(=O)O [Arachidonic Acid, (5Z,8Z,11Z,14Z)-5,8,11,14-eicosatetraenoic acid]",Visual Observation,0.3 mg arachidonic acid,Solution
same,Visual Observation,1.0 mg arachidonic acid,Solution

# Reference: patent US20190105344A1, “ORAL MOLECULAR IODINE COMPOSITION AND METHOD” (Iogen, LLC, priority 2016, published 2019)
